{
  "source": "PubChem BioAssay AID651640",
  "about": "(Broad Institute, 2012)",
  "note": "Out of some 350,000 compounds screened, about 6,000 (1.7%) were called active. Inconclusive results, whose numbers are uncertain, are shown with a selection of clear calls. No stated cut-off is given here; in the data, active means CPE inhibition above about 20% (passing the limit was not always enough); inconclusive means no clear call, values can overlap the other calls; tested in BHK-21 cells. Where a structure was tested more than once in an assay, its records may differ in their call.",
  "data": [
    {"assay": "protection of cells from dengue 2 killing – plate reader, single concentration, primary screen (AID 651640);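 further: 0% = median of neutral control wells and 100% = median of positive control wells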", "conditions": "DENV2-infected cells, cytopathic effect rescue, at 9.99 µM, hits give high values", "values": [
      {"smiles": "Cc1noc(C)c1NC(=O)Nc1ccc2c(c1)C(=O)N([C@@H](C)CO)C[C@@H](C)[C@H](CN(C)C(=O)CCCN(C)C)OCCCC[C@@H](C)O2", "CPE inhibition": "inactive: -2.41%"},
      {"smiles": "Cc1ccccc1N=C1Nc2ccccc2N[C@]12C[C@H]1CCC(=O)N3CC[C@@H](C2)[C@@H]13", "CPE inhibition": "active: 148%"},
      {"smiles": "COC(=O)c1ccccc1N(C)S(=O)(=O)c1cc2c3c(c1)CCC(=O)N3CCC2", "CPE inhibition": "inconclusive: 54.4%"},
      {"smiles": "CO[C@H]1CN(C)C(=O)c2cc(NC(=O)Cc3ccccc3)ccc2OC[C@H](C)N(C)C[C@@H]1C", "CPE inhibition": "inactive: -0.787%"},
      {"smiles": "C/C=C/c1ccc(C2[C@@H]3CN(C(=O)Nc4ccc(C(F)(F)F)cc4)C[C@H]2N3)cc1", "note": "(stereo partly specified)", "CPE inhibition": "active: 41.4%"},
      {"smiles": "O=C(C1CCN(c2nnc(-n3cccc3)s2)CC1)N1CCCCC1", "CPE inhibition": "inactive: -4.31%"},
      {"smiles": "C/C=C/c1cccc(-c2nc(C(=O)NCc3cccc(OC)c3)cc3c2[C@@H](CCO)N([S@](=O)C(C)(C)C)C3)c1", "CPE inhibition": "inconclusive: 42.6%"},
      {"smiles": "C[C@@H]1CN([C@H](C)CO)C(=O)c2cc(NS(=O)(=O)c3ccccc3)ccc2O[C@@H]1CN(C)S(=O)(=O)c1cn(C)cn1", "CPE inhibition": "inactive: -7.76%"},
      {"smiles": "CCCC(=O)Nc1ccc2c(c1)C(=O)N(C)C[C@H](OC)[C@H](C)CN(C(=O)c1cccnc1)[C@@H](C)CO2", "CPE inhibition": "inconclusive: 73%"},
      {"smiles": "Cc1ccc(S(=O)(=O)NCC(=O)OCC(=O)NCc2ccco2)cc1", "CPE inhibition": "inconclusive: 22.4%"},
      {"smiles": "C[C@H]1CN([C@@H](C)CO)C(=O)c2cc(NC(=O)CCN3CCOCC3)ccc2O[C@H]1CN(C)Cc1ccncc1", "CPE inhibition": "inactive: -1.2%"},
      {"smiles": "Cc1cccc(N/C=C/C(=O)c2ccc(Cl)cc2)c1", "CPE inhibition": "inconclusive: 34.4%"},
      {"smiles": "CC(C)(C)NC(=O)C1c2ccccc2OCC(=O)N1CC(F)(F)F", "note": "(stereo unspecified)", "CPE inhibition": "inconclusive: 25.3%"},
      {"smiles": "CCN(CC(=O)Nc1c(F)cccc1F)C(=O)c1cccc(S(=O)(=O)NCc2ccccc2)c1", "CPE inhibition": "active: 80.3%"},
      {"smiles": "O=C(C[C@@H]1CC[C@@H](NC(=O)Nc2ccc3c(c2)OCO3)[C@@H](CO)O1)NCc1ccc(F)cc1", "CPE inhibition": "inactive: -6.07%"},
      {"smiles": "CSCC[C@H](NC(=O)[C@H](Cc1ccccc1)n1c(=O)[nH]c2ccccc2c1=O)C(=O)N1CCC[C@@H]1C(=O)O", "CPE inhibition": "inconclusive: 20.2%"},
      {"smiles": "C[C@H]1CN([C@@H](C)CO)C(=O)c2ccccc2-c2ccccc2CO[C@@H]1CN(C)Cc1ccc(C(=O)O)cc1", "CPE inhibition": "inconclusive: 26%"},
      {"smiles": "COc1ccc(S(=O)(=O)N(C)C[C@H]2Oc3ccc(NC(=O)Nc4ccc(F)cc4)cc3CC(=O)N([C@@H](C)CO)C[C@H]2C)cc1", "CPE inhibition": "active: 23.3%"},
      {"smiles": "N#Cc1nc(COc2cccc(Cl)c2)oc1N1CCCC1", "CPE inhibition": "inactive: -0.77%"},
      {"smiles": "C[C@@H]1CN([C@@H](C)CO)C(=O)c2cc(Br)cnc2O[C@H]1CN(C)C(=O)c1ccccc1F", "CPE inhibition": "inconclusive: 42.3%"},
      {"smiles": "CN(C(=O)COC(=O)c1cccs1)c1ccccc1", "CPE inhibition": "inconclusive: 32.6%"},
      {"smiles": "CN1CCC[C@@H]1CCO[C@](C)(c1ccccc1)c1ccc(Cl)cc1", "CPE inhibition": "inconclusive: 43.4%"},
      {"smiles": "O=C(Cc1ccc(NC(=O)C2CCCN(C(=O)C3CCCCC3)C2)cc1)Nc1cccc(C(=O)N2CCCCC2)c1", "note": "(stereo unspecified)", "CPE inhibition": "inconclusive: 66.9%"},
      {"smiles": "CO[C@@H]1CN(C)C(=O)c2ccc(NS(C)(=O)=O)cc2OC[C@H](C)N(Cc2cccnc2)C[C@@H]1C", "CPE inhibition": "active: 26.2%"},
      {"smiles": "COc1cccc2nc3c(C(=O)NCCN(C)C)cccc3cc12", "CPE inhibition": "inactive: 16.5%"},
      {"smiles": "COc1ccc(S(=O)(=O)N(C)C[C@@H]2OCCCC[C@@H](C)Oc3ccc(NC(=O)c4ccccc4)cc3C(=O)N([C@@H](C)CO)C[C@@H]2C)cc1", "CPE inhibition": "active: 29.4%"},
      {"smiles": "O=C(Cc1ccccn1)N1CC(=O)N2[C@@H](CO)[C@H](c3ccc(C#CC4CC4)cc3)[C@@H]2C1", "CPE inhibition": "inactive: 8.58%"},
      {"smiles": "CNC[C@H]1Oc2ccc(NS(=O)(=O)c3ccc(Cl)cc3)cc2CC(=O)N([C@@H](C)CO)C[C@@H]1C", "CPE inhibition": "active: 27.1%"},
      {"smiles": "CN(Cc1ccccc1)C(=O)c1ccc(NC(=O)Cc2ccc(NC(=O)C3CCCN(C(=O)C4CCC4)C3)cc2)cc1", "note": "(stereo unspecified)", "CPE inhibition": "inconclusive: 102%"},
      {"smiles": "O=C1CSC2=NC3(CO)Oc4ccccc4[C@H]([C@H]3CO)N12", "CPE inhibition": "active: 27.4%"},
      {"smiles": "COc1ccc(NC(=O)Nc2ccc3c(c2)C(=O)N([C@H](C)CO)C[C@H](C)[C@@H](CN(C)C(=O)Cc2ccccc2)OCCCC[C@H](C)O3)cc1", "CPE inhibition": "active: 58.1%"},
      {"smiles": "CN1CCN(NC(=S)Nc2ccc(Oc3ccccc3)cc2)CC1", "CPE inhibition": "inactive: 1.89%"},
      {"smiles": "CO[C@@H]1CN(C)C(=O)c2cc(NS(C)(=O)=O)ccc2OC[C@@H](C)N(C(=O)C2CCC2)C[C@H]1C", "CPE inhibition": "inactive: 9.5%"},
      {"smiles": "C[C@@H]1CN([C@@H](C)CO)S(=O)(=O)c2ccc(C#C[C@@H](C)O)cc2O[C@H]1CN(C)CC1CCCC1", "CPE inhibition": "active: 21%"},
      {"smiles": "C[C@H]1CN([C@@H](C)CO)C(=O)c2cc(NS(=O)(=O)c3cn(C)cn3)ccc2O[C@H]1CN(C)C(=O)NC1CCCCC1", "CPE inhibition": "inconclusive: 20.7%"},
      {"smiles": "COC(=O)[C@H]1[C@H](CO)[C@H]2Cn3c(ccc(-c4ccccc4F)c3=O)[C@H]2N1Cc1ccncc1", "CPE inhibition": "inactive: -2.25%"}
    ]}
  ]
}
